# Laboratory results published in PubChem BioAssay AID1508636 (National Center for Advancing Translational Sciences (NCATS), 2021).
# Chains of the proteins cited; added tags and fusions are not shown.
# UniProt P08183, whole entry, looked up: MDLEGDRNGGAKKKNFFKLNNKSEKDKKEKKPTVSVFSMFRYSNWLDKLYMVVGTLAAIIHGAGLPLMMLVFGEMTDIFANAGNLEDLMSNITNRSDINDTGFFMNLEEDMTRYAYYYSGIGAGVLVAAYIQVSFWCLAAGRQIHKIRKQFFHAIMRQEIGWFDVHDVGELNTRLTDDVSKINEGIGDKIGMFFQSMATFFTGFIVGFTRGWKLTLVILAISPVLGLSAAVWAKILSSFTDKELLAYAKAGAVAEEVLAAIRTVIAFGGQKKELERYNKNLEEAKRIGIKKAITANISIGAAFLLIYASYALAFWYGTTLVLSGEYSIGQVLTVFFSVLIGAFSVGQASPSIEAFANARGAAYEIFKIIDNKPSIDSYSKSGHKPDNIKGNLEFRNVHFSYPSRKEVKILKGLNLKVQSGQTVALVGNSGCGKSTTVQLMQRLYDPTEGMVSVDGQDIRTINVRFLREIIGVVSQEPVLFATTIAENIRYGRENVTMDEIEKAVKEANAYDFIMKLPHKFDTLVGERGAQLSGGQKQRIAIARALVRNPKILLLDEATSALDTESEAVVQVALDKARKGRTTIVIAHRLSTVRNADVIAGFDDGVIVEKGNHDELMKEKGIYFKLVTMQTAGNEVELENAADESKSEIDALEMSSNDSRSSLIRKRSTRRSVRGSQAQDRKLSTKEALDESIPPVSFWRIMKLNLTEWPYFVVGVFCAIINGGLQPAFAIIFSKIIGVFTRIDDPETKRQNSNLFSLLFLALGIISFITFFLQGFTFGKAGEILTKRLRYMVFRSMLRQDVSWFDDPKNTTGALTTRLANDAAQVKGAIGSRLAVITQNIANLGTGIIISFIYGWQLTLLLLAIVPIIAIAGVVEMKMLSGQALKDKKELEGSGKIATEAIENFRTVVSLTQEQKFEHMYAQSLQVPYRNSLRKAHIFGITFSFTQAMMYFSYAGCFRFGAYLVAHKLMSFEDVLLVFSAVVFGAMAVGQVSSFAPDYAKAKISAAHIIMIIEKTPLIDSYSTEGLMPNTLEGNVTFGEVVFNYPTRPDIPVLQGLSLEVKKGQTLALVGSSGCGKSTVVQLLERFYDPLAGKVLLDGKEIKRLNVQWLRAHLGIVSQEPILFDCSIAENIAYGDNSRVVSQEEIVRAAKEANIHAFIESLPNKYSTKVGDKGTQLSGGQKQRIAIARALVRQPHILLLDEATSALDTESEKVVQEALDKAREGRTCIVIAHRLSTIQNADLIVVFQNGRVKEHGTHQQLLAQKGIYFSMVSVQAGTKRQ
# Inconclusive means that the source gave no clear call. Such entries were picked first, then a sample of the others. Where the call is inconclusive, the potency comes from a doubtful curve fit. Active and inactive are the calls of the source. Calls come from the whole dose curve; as a rule, active = well fitted inhibition curve with a large enough effect; inconclusive = small, poorly fitted or top-dose-only effect; inactive = flat fitted curve, though single readings scatter.
# Molecular target: ATP-dependent translocase ABCB1 (Homo sapiens) (UniProt P08183)
# Assay: qHTS for characterization and localization of zebrafish homologs of the human ABCB1 multidrug transporter: P-gp overexpressing MDR-19 cells
# Settings: MDR-19 cells overexpressing P-gp, CellTiter-Glo luminescence viability, 72 h; series mostly up to 46.1 µM
# Excerpt: The zebrafish has emerged as a potential model to study the blood-brain barrier (BBB) given its similarities with mammalian systems. However, little information has been available with regard to homologous ATP-binding cassette transporters expressed at the zebrafish BBB. Two transporters that are highly expressed at the human BBB are P-glycoprotein (P-gp, encoded by the ABCB1 gene) and ABCG2 (encoded by the ABCG2 gene). In this study, we focus on characterization of P-gp homologs in the zebrafish, which has two genes that are homologous to human ABCB1 - abcb4 and abcb5. We generated stably-transfected cell lines to determine their substrate specificities. […] Zebrafish abcb4 also colocalized with claudin 5 expression in brain endothelial cells.
# A high-throughput screen was performed as previously described on empty vector transfected cells, P-gp-overexpressing MDR-19 cells and cells transfected with full-length zebrafish abcb4 (ZF Abcb4) or abcb5 (ZF Abcb5). Briefly, cells were plated into 1536-well plates at a density of 500 cells/well in 5 uL media. P-gp substrate compounds (approximately 90) selected from our previous study were then added at varying concentrations using a 1536-head pin tool (Kalypsis, San Diego, CA) and plates were incubated at 37C in 5% CO2 for 72 h. CellTiter-Glo reagent (Promega) was dispensed into the wells, incubated for 5 min and luminescence was read on a ViewLux instrument (Perkin-Elmer).
# Cytotoxic compounds were defined as those that yielded a curve class of -1.1, -1.2, -2.1, -2.2, -2.3, or -2.4, a maximum response of >50% and an AC50 of < 10 uM. All compounds from screening analysis were tested in Vector (empty vector control), MDR-19 (P-gp overexpressing), zebrafish abcb4 (ZF Abcb4) and abcb5 (ZF Abcb5) expression cell lines.
# 1. Tobie D Lee, Olivia W Lee, Kyle R Brimacombe, Lu Chen, Rajarshi Guha, Sabrina Lusvarghi, Bethilehem G Tebase, Carleen Klumpp-Thomas, Robert W Robey, Suresh V Ambudkar, Min Shen, Michael M Gottesman, Matthew D Hall. A High-Throughput Screen of a Library of Therapeutics Identifies Cytotoxic Substrates of P-glycoprotein. Mol Pharmacol. 2019, Nov;96(5):629-640.
SMILES,Potency,"activity change, negative = inhibition"
CC(C)C[C@H](NC(=O)[C@@H](NC(=O)c1cccc(-c2ccccc2)n1)[C@@H](C)O)B(O)O,active: 0.372 µM,–
CN(C)C1CCN(C(=O)c2ccc(NC(=O)Nc3ccc(-c4nc(N5CCOCC5)nc(N5CCOCC5)n4)cc3)cc2)CC1,inactive,–
O=C(NC1CCNCC1)c1[nH]ncc1NC(=O)c1c(Cl)cccc1Cl,inactive,–
O=C(NC1CC1)c1cccc(-c2ccc3c(NC(=O)C4CC4)n[nH]c3c2)c1,inactive,–
C[C@@H]1O[C@@H](O[C@H]2[C@@H](OC(=O)[C@]34CCC(C)(C)CC3C3=CCC5[C@@]6(C)C[C@H](O)[C@H](O[C@@H]7O[C@H](CO)[C@@H](O)[C@H](O)[C@H]7O[C@@H]7OC[C@@H](O)[C@H](O)[C@H]7O)[C@@](C)(C(=O)O)C6CC[C@@]5(C)[C@]3(C)CC4)OC[C@H](O)[C@@H]2O)[C@H](O)[C@H](O)[C@H]1O[C@@H]1OC[C@@H](O)[C@H](O)[C@H]1O (stereo not given in full),–,inactive: -1.44% [at 8.96 µM]
CC[C@@]1([C@@H]2O[C@@H]([C@H]3O[C@@](O)(CO)[C@H](C)C[C@@H]3C)C[C@@H]2C)CC[C@H]([C@]2(C)CC[C@]3(C[C@H](O)[C@@H](C)[C@@H]([C@@H](C)[C@@H](OC)[C@H](C)C(=O)O)O3)O2)O1 (stereo in doubt),"inconclusive: 0.743 µM [inhibitor, full curve]",–
COCCn1c2c([n+](Cc3cnccn3)c1C)C(=O)c1ccccc1C2=O,"inconclusive: 9.35 µM [inhibitor, partial curve]",–
CN(c1ncccc1CNc1nc(Nc2ccc3c(c2)CC(=O)N3)ncc1C(F)(F)F)S(C)(=O)=O,active: 18.7 µM,–
CCC1=CC2CN(C1)Cc1c([nH]c3ccccc13)[C@@](C(=O)OC)(c1cc3c(cc1OC)N(C)[C@H]1[C@@](O)(C(=O)OC)[C@H](OC(C)=O)[C@]4(CC)C=CCN5CC[C@]31[C@@H]54)C2 (stereo not given in full),"inconclusive: 5.26 µM [inhibitor, full curve]",–
CC(NCc1ccc2c(c1)nc(NC(=O)c1ccc(-c3cn[nH]c3)s1)n2CC(C)(C)O)C(C)(C)C (stereo not given),active: 2.96 µM,–
Oc1ccc(-c2ccc(-c3cc(Nc4cccc(CNC5CC5)c4)n[nH]3)cc2)c(O)c1,"inconclusive: 29.6 µM [inhibitor, single point]",–
COc1cc(NCc2ccc3nc(N)nc(N)c3c2C)cc(OC)c1OC,"inconclusive: 0.418 µM [inhibitor, full curve]",–
N=C(N)c1ccc(OCCCCCOc2ccc(C(=N)N)cc2)cc1,"inconclusive: 14.8 µM [inhibitor, partial curve]",–
CCN(CC)Cc1ccc(C(=O)N(CCc2ccccc2OC)[C@@H]2CCNC2)cc1,inactive,–
CCC1(O)CC2CN(CCc3c([nH]c4ccccc34)[C@@](C(=O)OC)(c3cc4c(cc3OC)N(C=O)[C@H]3[C@](O)(C(=O)OC)[C@H](OC(C)=O)[C@]5(CC)C=CCN6CC[C@]43[C@@H]65)C2)C1 (stereo not given in full),"inconclusive: 1.87 µM [inhibitor, full curve]",–
O=C(Nc1cn[nH]c1-c1nc2ccc(CN3CCOCC3)cc2[nH]1)NC1CC1,"inconclusive: 23.5 µM [inhibitor, partial curve]",–
CCn1c(-c2nonc2N)nc2c(C#CC(C)(C)O)ncc(OC[C@H]3CCCNC3)c21,inactive,–
CCc1c(O)cc(O)c(C(=O)c2ccc(OCCN3CCOCC3)c(OC)c2)c1CC(=O)N(CCOC)CCOC,"inconclusive: 37.2 µM [inhibitor, partial curve, poor fit]",–
NC(=O)Nc1cc(-c2ccc(CN3CCOCC3)c(F)c2)sc1C(=O)N[C@H]1CCCNC1,"inconclusive: 23.5 µM [inhibitor, single point]",–
CC(=O)OC12COC1CC(O)C1(C)C(=O)C(O)C3=C(C)C(OC(=O)C(O)C(NC(=O)OC(C)(C)C)c4ccccc4)CC(O)(C(OC(=O)c4ccccc4)C21)C3(C)C (stereo not given),"inconclusive: 0.418 µM [inhibitor, full curve]",–

# Looked up above:
# In Potency, `O=C(NC1CCNCC1)c1[nH]ncc1NC(=O)c1c(Cl)cccc1Cl` shows inactive
# In Potency, `COc1cc(NCc2ccc3nc(N)nc(N)c3c2C)cc(OC)c1OC` shows inconclusive: 0.418 µM [inhibitor, full curve]
# In Potency, `CC(C)C[C@H](NC(=O)[C@@H](NC(=O)c1cccc(-c2ccccc2)n1)[C@@H](C)O)B(O)O` shows active: 0.372 µM

# The listing continues:

SMILES,Potency,"activity change, negative = inhibition"
CC1(C)CC[C@]2(C(=O)OC3OC(CO)C(O)C(O)C3O)CC[C@]3(C)C(=CCC4[C@@]5(C)CC[C@H](OC6OC(C(=O)O)C(O)C(O)C6O)C(CO)(CO)C5CC[C@]43C)[C@@H]2C1 (stereo not given in full),inactive,–
CC(C)CC(=O)Nc1n[nH]c2c1CN(C(=O)C1CCN(C)CC1)C2(C)C,inactive,–
CC[C@@H]1C(=O)N(C)c2cnc(Nc3ccc(C(=O)NC4CCC(N5CCN(CC6CC6)CC5)CC4)cc3OC)nc2N1C(C)C (stereo not given in full),active: 2.35 µM,–
Cc1cc(Nc2cc(N3CCN(C)CC3)nc(Sc3ccc(NC(=O)C4CC4)cc3)n2)n[nH]1,"inconclusive: 8.33 µM [inhibitor, single point]",–
CCS(=O)(=O)c1cccc(-c2cc(C(=O)NC3CCN(C)CC3)c(C)c3[nH]c4ncc(C)cc4c23)c1,inactive,–
CC(C)(C)c1cnc(CSc2cnc(NC(=O)C3CCNCC3)s2)o1,active: 24.1 µM,–
C[C@]12CCC(=O)C=C1[C@@H]1C[C@@H]1[C@H]1[C@@H]3[C@@H]4C[C@@H]4[C@@]4(CCC(=O)O4)[C@@]3(C)CC[C@@H]12,"inconclusive: 20.9 µM [inhibitor, partial curve]",–
CC(=O)OC1C(=O)C2(C)C(O)CC3OCC3(OC(C)=O)C2C(OC(=O)c2ccccc2)C2(O)CC(OC(=O)C(O)C(NC(=O)c3ccccc3)c3ccccc3)C(C)=C1C2(C)C (stereo not given),"inconclusive: 1.87 µM [inhibitor, full curve]",–
C[C@@H]1O[C@@H](O[C@H]2[C@H](O)[C@@H](O)[C@H](O[C@H]3[C@H](O[C@H]4CC[C@@]5(C)C(=CC[C@@H]6C5CC[C@]5(C)[C@@H]7[C@H](C[C@@H]65)O[C@]5(CC[C@@](C)(CO[C@@H]6O[C@H](CO)[C@@H](O)[C@H](O)[C@H]6O)O5)[C@H]7C)C4)O[C@H](CO)[C@@H](O)[C@@H]3O)O[C@@H]2CO)[C@H](O)[C@H](O)[C@H]1O (stereo not given in full),"inconclusive: 5.6 µM [inhibitor, partial curve]",–
CCn1nnc2c(N3CCOCC3)nc(-c3ccc(NC(=O)Nc4ccc(C(=O)N5CCN(C)CC5)cc4)cc3)nc21,"inconclusive: 33.2 µM [inhibitor, partial curve, poor fit]",–
Cc1nc(Nc2n[nH]c3c2CN(C(=O)N[C@H](CN(C)C)c2ccccc2)C3(C)C)c2sccc2n1,"inconclusive: 4.18 µM [inhibitor, full curve]",–
C[C@@H](Oc1cc(-n2cnc3ccc(CN4CCN(C)CC4)cc32)sc1C(N)=O)c1ccccc1C(F)(F)F,active: 0.469 µM,–
CN(C)C/C=C/C(=O)Nc1cccc(C(=O)Nc2ccc(Nc3nccc(-c4cccnc4)n3)cc2)c1,inactive,–
CN(C)c1ccc(C(=C2C=CC(=[N+](C)C)C=C2)c2ccc(N(C)C)cc2)cc1,active: 4.69 µM,–
CC1(C)CC(NC(=O)C(=O)Nc2ccc(Br)cc2)CC(C)(C)N1,inactive,–
CC[C@@]1(O)CC2CN(CCc3c([nH]c4ccccc34)[C@](C(=O)OC)(c3cc4c(cc3OC)N(C)C3[C@@](O)(C(N)=O)[C@H](O)[C@]5(CC)C=CCN6CC[C@@]43[C@@H]65)C2)C1 (stereo not given in full),"inconclusive: 2.96 µM [inhibitor, full curve]",–
Cc1cc(N)c2ccccc2[n+]1CCCCCCCCCC[n+]1c(C)cc(N)c2ccccc21,"inconclusive: 8.33 µM [inhibitor, full curve, poor fit]",–
CC[n+]1c(-c2ccccc2)c2cc(N)ccc2c2ccc(N)cc21,"inconclusive: 14.8 µM [inhibitor, partial curve]",–
CC(=O)O[C@@H]1C[C@H](O)[C@@]23CO[C@@H](O)C1(C)[C@@H]2C[C@@H](O)[C@]1(C)[C@@H]3C(=O)[C@H](OC(C)=O)[C@@]2(C)[C@H](c3ccoc3)C[C@H]3O[C@]321,active: 3.72 µM,–
Cc1ccc(C(=O)N(CCCN)[C@@H](c2oc3cc(Cl)ccc3c(=O)c2Cc2ccccc2)C(C)C)cc1,active: 13.2 µM,–
